Part of at least one peptide drawing is inferred or uncertain, most often the ends. Ends that are not written are not given here.
Experiments:
Format in all cases: cell-based
[1] = test system: Bacillus anthracis Sterne spores
[2] = test system: Bacillus anthracis Sterne
Bacillus subtilis spores = test system: Bacillus subtilis spores
Bacillus subtilis = test system: Bacillus subtilis

TRKKLFHIFHATIRSR [PAD-1.17, TRKKLFHIFHATIRSR]
emergence of viable cells from B. anthracis Sterne spores (CFU) [1]: prevented viable cells from emerging
killing of Bacillus anthracis Sterne inoculum in time kill assay [2]: killed
visible growth of B. anthracis Sterne in tubes [2]: no visible growth
emergence of viable cells from B. subtilis spores (CFU) (Bacillus subtilis spores): prevented viable cells from emerging
killing of Bacillus subtilis inoculum in time kill assay (Bacillus subtilis): killed

From patent US20080249023A1 (priority 2004, published 2008)
